# Measured values reported in the supplement of paper PMC11348887.
# Counter-ions that a name gives are not always drawn. Some of the results follow. Small differences around the control level are noise.
# System: hPSC-derived cortical neurons (WA09)
# Test: nucleus area z-score vs screen plate; higher = larger nuclei (more mature)
# Conditions: 5 µM; treatment: days 7-14 after plating, readout day 21
row,Structure (SMILES),nucleus area z-score
1,Nc1nc(NC2CC2)cc(-c2cccc(Cl)c2Cl)n1,0.00532
2,O=C1C(=O)N(Cc2ccc(Cl)c(Cl)c2)c2ccccc21 [Apoptosis Activator 2],-0.636
3,Cn1cc(-c2ccncc2)c(-c2ccc(OCc3ccc4ccccc4n3)cc2)n1,0.18
4,O=C(CCCCCCC(=O)Nc1ccccc1)NO [Vorinostat (SAHA_ MK0683)],-8.14
5,O=S(=O)(N=Cc1c(O)ccc2ccccc12)c1cccs1,0.542

# System: hPSC-derived cortical neurons (WA09)
# Test: total neurite length per nucleus (MAP2) z-score; higher = more neurite growth
# Conditions: 5 µM; treatment: days 7-14 after plating, readout day 21
row,Structure (SMILES),total neurite length per nucleus (z-score)
1,CNC[C@H](O)[C@@H](O)[C@H](O)[C@H](O)CO [Meglumine],1.64
2,NNc1nncc2ccccc12 [Hydralazine HCl],-0.842
3,C[C@@H](N)[C@H]1CC[C@H](C(=O)Nc2ccncc2)CC1,-0.262
4,CNC(=O)c1cc(Oc2ccc(NC(=O)Nc3ccc(Cl)c(C(F)(F)F)c3)cc2)ccn1 [Sorafenib],-1.04
5,O=S(=O)(O)CCSSCCS(=O)(=O)O [Dimesna],0.322
6,CCOC(=O)C1=C(C)NC(C)=C(C(=O)OCC)C1c1ccccc1/C=C/C(=O)OC(C)(C)C [Lacidipine],-0.432
7,CC(=O)c1cc([N+](=O)[O-])c(Sc2ccc(F)cc2F)s1,0.0385
8,CS(=O)(=O)c1ccc([C@@H](O)[C@@H](CF)NC(=O)C(Cl)Cl)cc1 [Florfenicol],-0.171
9,COC(=O)[C@H](c1ccccc1Cl)N1CCc2sccc2C1 [Clopidogrel],0.0878
10,COc1ccnc(C[S+]([O-])c2nc3cc(OC(F)F)ccc3[nH]2)c1OC (stereo unspecified) [Pantoprazole sodium],-0.0656
11,CCOC(=O)c1ncn2c1CN(C)C(=O)c1cc(F)ccc1-2 [Flumazenil],0.227

# 2 neighbouring compounds from above, quoted:
row,Structure (SMILES),total neurite length per nucleus (z-score)
6,CCOC(=O)C1=C(C)NC(C)=C(C(=O)OCC)C1c1ccccc1/C=C/C(=O)OC(C)(C)C [Lacidipine],-0.432
7,CC(=O)c1cc([N+](=O)[O-])c(Sc2ccc(F)cc2F)s1,0.0385
